Source: publication PMC9063446, “Biochemical and in silico identification of the active site and the catalytic mechanism of the circadian deadenylase HESPERIN” (FEBS Open Bio, 2022)
These are yes or no findings as the source states them, for the method shown.

Target: AtHESPERIN (Arabidopsis thaliana) (UniProt A8MS41)
Assay: native gel or EMSA; 7% PAGE under nondenaturing conditions for acidic proteins; 16 ug AtHESPERIN incubated with urea, more than 4 M (up to 8 M); both purified

B1: AtHESPERIN (enzyme, Arabidopsis thaliana, UniProt A8MS41 1-417, looked up)
chain: MFSSTTLHHLPRPNLLLPRKVISRRMSTNPAIEPKVRKFESVEGVDIGSRNKSDGFFAIPLYLSKLVALYNCISLSRIGTSNENFVFSGIRFRLVSYNILAQVYVKSALLPHSPPACLKWKARSHAILSVLKNLQADFFCLQEVDEYDSFYRNNMDSLGYSGIYIQRTGQRKRDGCAIFYKPSCAELVTKERIEYNDLVDSIKADSVSCSEQKIETSNEGKDSRKDSRDLNDPLVRLKRDCVGIMAAFRINKPFQHIVIVANTHLYWDPELADVKLAQAKYLLSRLAQFKTLISDEFECTPSLLLAGDFNSIPGDMVYSYLVSGNAKPTETIEEEEAPVPLSSVYEVTRGEPKFTNCTPGFTNTLDYIFISPSDFIKPVSILQLPEPDSPDVVGFLPNHHHPSDHLPIGAEFEIRRE
notes: AtHESPERIN (Hesperin), circadian EEP deadenylase of Arabidopsis thaliana, UniProtKB A8MS41; cDNA cloned in pATHRA behind 6x His tag and HRV 3C site; The His tag was removed with HRV 3C protease (site LEVLFQ/GP), so residues of the site may be left at the N-terminus; It calls the oligomer mainly trimeric; also called native AtHESPERIN; wild-type AtHESPERIN; source: E. coli BL21-GOLD (DE3), …
binding: no binding (condition: with more than 4 M urea)
